PubChem BioAssay AID652243 – Drosophila RNAi Screening Center, 2013
In all, the deposit lists about 24,000 reagents; below is an unselected part of those with a known target gene and a result. In the full data, 246 (1%) were called active. 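Plates not normalised; calls are printed but the firefly/Renilla ratio behind them is not deposited; fold cut for lowering reported inconsistently.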 The raw values are shown without normalisation. A number with no mark means an inactive call. Reagents against one gene are numbered here. A plus sign joins genes that one reagent is predicted to hit. No sequences are given here. Not given: the amount of reagent.

- Screen: 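Fly genes required for human androgen receptor driven transcription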 (primary screen)
- System: Drosophila S2R+ cells
- Reagent: long dsRNA against Drosophila genes
- Time to read-out: 72 h (48 h, then 24 h hormone)
- Treatment: synthetic androgen R1881 at 10 nM for 24 h
- Read-out: 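Firefly light from an androgen-responsive reporter and Renilla control light per well, raw and unnormalised, for each of two replicates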
- Direction: firefly reporter light: higher = more light from androgen-responsive reporter; Renilla control light: higher = more constitutive control signal (cell number, transfection)
- Call rule: 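Hit when the log firefly-to-Renilla ratio dropped or increased by a fixed fold versus the mean of GFP or LacZ controls across duplicate plates; lowering cut given as 1.5 and as 3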
- Calls: active = hit: reporter lowered or raised; inactive = no hit

target gene | reagent | firefly reporter light, replicate 1 | firefly reporter light, replicate 2 | Renilla control light, replicate 1 | Renilla control light, replicate 2
CG18095 | 1 | 2.90e5 | 2.84e5 | 1.54e6 | 2.00e6
CG4666 | 1 | 4.50e5 | 4.91e5 | 2.44e6 | 3.11e6
Ero1L | 1 | 1.12e6 | 4.94e5 | 1.53e6 | 1.03e6
CG32240 | 1 | 1.28e5 | 1.10e5 | 1.37e5 | 1.92e5
dpr8 | 1 | 5.36e5 | 6.44e5 | 3.77e6 | 3.92e6
dpr8 | 2 | 5.00e5 | 4.50e5 | 3.99e6 | 4.12e6
dpr8 | 3 | 5.04e5 | 6.20e5 | 2.74e6 | 2.48e6
dpr8 | 4 | 5.27e5 | 4.41e5 | 3.55e6 | 4.22e6
hpRNA:CR18854 + IP3K1 | 1 | 7.61e5 | 9.61e5 | 1.43e6 | 1.81e6
Pgant1 | 1 | 85028 | 1.25e5 | 1.98e6 | 1.98e6
side-IV + asRNA:CR17025 | 1 | 1.66e5 | 1.65e5 | 2.75e6 | 2.36e6
side-IV + asRNA:CR17025 | 2 | 2.19e5 | 1.63e5 | 3.64e6 | 1.87e6
DCTN6-p27 | 1 | 2.35e5 | 2.79e5 | 1.77e6 | 3.24e6
DCTN6-p27 | 2 | 3.12e5 | 5.94e5 | 7.31e5 | 1.27e6
DCTN6-p27 | 3 | 3.95e5 | 2.60e5 | 1.11e6 | 1.04e6
CheB98a | 1 | 1.46e5 | 1.85e5 | 2.19e6 | 2.66e6
CG43131 | 1 | 5.87e5 | 3.86e5 | 2.70e6 | 3.11e6
Nap1 | 1 | 1.21e6 | 8.57e5 | 1.40e6 | 1.51e6
lncRNA:CR32661 | 1 | 4.40e5 | 7.22e5 | 7.66e5 | 1.08e6
wwk | 1 | 1.38e5 | 1.55e5 | 1.56e6 | 1.60e6
CG15059 | 1 | 5.55e5 | 5.76e5 | 3.97e6 | 3.86e6
CG15059 | 2 | 4.79e5 | 3.47e5 | 1.61e6 | 1.48e6
CG15059 | 3 | 8.94e5 | 7.15e5 | 1.99e6 | 2.06e6
CG15296 | 1 | 4.65e5 | 3.22e5 | 4.06e6 | 3.28e6
CG15296 | 2 | 2.13e5 | 3.67e5 | 8.70e5 | 9.98e5

Taken from above.
CG32240, firefly reporter light, replicate 2: 1.10e5
For “firefly reporter light, replicate 1”, side-IV + asRNA:CR17025 #2 reads 2.19e5
Result for Ero1L under “Renilla control light, replicate 1”: 1.53e6
DCTN6-p27 #1, Renilla control light, replicate 1 → 1.77e6
